This data set deals with NALM-6 GFP-ffLuc tumor (leptomeningeal disease). Nature of the data set: [18F]-fluoroacetate PET/CT and PET/MRI imaging of ALL/LMD mouse model. The class given is in vivo.

As to `O=C(O)C[18F]` [[^18F]-fluoroacetate, ^18F-fluoroacetate], the “Radiotracer uptake by PET-CT vs control mouse” value (NSG mice with systemic NALM-6 GFP-ffLuc, i.v. tracer, static PET 1 h after injection) is reported as “elevated uptake of the radiotracer throughout the central nervous system”. Moreover, where the note is “mouse bearing systemic NALM-6 tumor, brain and spinal cord”, the “Radiotracer uptake by PET/MRI vs normal control mouse” value was “specific uptake”.

(Values after patent US20220387635A1, “PET IMAGING OF CANCEROUS CELLS USING 18F-FLUOROACETATE” (priority 2019, published 2022).)
